Article PMC8327751
These are yes or no findings as the source states them, for the method shown. In cells and extracts the contact can be indirect. Some entries that bind do so weakly or less than the wild type.

Sequences of proteins named here, by UniProt entry; tags and fusion partners are left off.
UniProt O15205: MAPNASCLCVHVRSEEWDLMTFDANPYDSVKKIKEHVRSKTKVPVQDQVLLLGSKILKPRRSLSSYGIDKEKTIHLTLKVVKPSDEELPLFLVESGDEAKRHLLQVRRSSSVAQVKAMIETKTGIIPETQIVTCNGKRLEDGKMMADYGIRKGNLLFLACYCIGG

Target: tumor suppressor p53 (human (endogenous in HCT116)) (UniProt P04637)
Assay: co-IP; immunoprecipitation of endogenous UBD and p53 from HCT116 cell lysate (RIPA lysis buffer with 1% PMSF); UBD-p53 complexes also examined in cells with shRNA knock-down of UBA6 or USE1; procedure as in ref. 34

binding: binds
Substance: Ubiquitin D (from UniProt O15205 1-165)
